# Results: the supplement of paper PMC8975748
# Counter-ions that a name gives are not always drawn. ± gives the standard deviation of the averaged measurements. The list shows a part of the results. Values are raw readings; no control value is given beside them.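 The yeast community starts from one strain carrying four plasmids, each with an amino-acid or uracil synthesis gene and a fluorescent protein. Random plasmid loss creates mixed prototroph and auxotroph subpopulations. Cells were fixed and counted by automated confocal fluorescence imaging, and DMSO-treated wells served as the vehicle reference.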
# Tested on: Saccharomyces cerevisiae BY4741 SeMeCo community
# Assay: imaged cell count per well (cells); higher = more cells
# Conditions: 10 µM; 24 h; SM minimal medium
# Method: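 Same SeMeCo high-content imaging drug screen: Selleck FDA-approved drugs at 10 µM, 24 h in SM medium, 384-well plates, 3 replicates.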
row,SMILES,imaged cell count per well
1,CC(C)(C)C(=O)OCOC(=O)[C@@H]1N2C(=O)[C@@H](/N=C/N3CCCCCC3)[C@H]2SC1(C)C [Pivmecillinam hydrochloride],21900 ± 6400
2,CN(C)c1ccc(O)c2c1C[C@H]1C[C@H]3[C@H](N(C)C)C(O)=C(C(N)=O)C(=O)[C@@]3(O)C(O)=C1C2=O [Minocycline HCl],18300 ± 6400
3,CC(C)C(=O)Oc1ccc(CO)cc1[C@H](CCN(C(C)C)C(C)C)c1ccccc1 [Fesoterodine Fumarate],27400 ± 5000
4,CCn1cc(C(=O)O)c(=O)c2cc(F)c(N3CCNCC3)cc21 [Norfloxacin],28200 ± 4300
5,C=CCCCCCCCCC(=O)[O-].C=CCCCCCCCCC(=O)[O-].[Zn+2] [Zinc Undecylenate],32500 ± 4700
6,C[C@H]1c2cccc(O)c2C(=O)C2=C(O)[C@]3(O)C(=O)C(C(N)=O)=C(O)[C@@H](N(C)C)[C@@H]3[C@@H](O)[C@@H]21 [Doxycycline],26500 ± 3000
7,OCCN1CCN(CCCN2c3ccccc3Sc3ccc(Cl)cc32)CC1 [Perphenazine],25800 ± 5600
8,CN1CCN(C2=Nc3ccccc3Oc3ccc(Cl)cc32)CC1 [Loxapine Succinate],21000 ± 10000
9,CC[C@H]1OC(=O)[C@H](C)[C@@H](O[C@H]2C[C@@](C)(OC)[C@@H](O)[C@H](C)O2)[C@H](C)[C@@H](O[C@@H]2O[C@H](C)C[C@H](N(C)C)[C@H]2O)[C@](C)(O)C[C@@H](C)/C(=N\OCOCCOC)[C@H](C)[C@@H](O)[C@]1(C)O [Roxithromycin],25300 ± 4600
10,CC1=C(C(=O)O)N2C(=O)[C@@H](NC(=O)[C@H](N)c3ccc(O)cc3)[C@H]2SC1 [Cefadroxil hydrate],27200 ± 4200
11,CCCCNc1ccc(C(=O)OCCN(C)C)cc1 [Tetracaine HCl],19400 ± 6900
12,"CO[C@H]1C[C@@H]2CC[C@@H](C)[C@@](O)(O2)C(=O)C(=O)N2CCCC[C@H]2C(=O)O[C@H]([C@H](C)C[C@@H]2CC[C@@H](OP(C)(C)=O)[C@H](OC)C2)CC(=O)[C@H](C)/C=C(\C)[C@@H](O)[C@@H](OC)C(=O)[C@H](C)C[C@H](C)/C=C/C=C/C=C/1C [Ridaforolimus (Deforolimus, MK-8669)]",8270 ± 500
13,Cc1cccc(Nc2ccccc2C(=O)O)c1C [Mefenamic Acid],25100 ± 4900
14,CCc1cc(C(N)=S)ccn1 [Ethionamide],21300 ± 11000
15,O=C(O)c1cn(-c2ccc(F)cc2)c2cc(N3CCNCC3)c(F)cc2c1=O [Sarafloxacin HCl],29500 ± 2600
16,C[C@@H]1CC(=O)NN=C1c1ccc(NN=C(C#N)C#N)cc1 [Levosimendan],23100 ± 3400
17,CN1C2CCCC1CC(NC(=O)c1nn(C)c3ccccc13)C2 (stereo not drawn) [Granisetron],25700 ± 3400
18,CCCSc1ccc2[nH]c(NC(=O)OC)nc2c1 [Albendazole],18900 ± 4900
19,COc1ccc(NS(=O)(=O)c2ccc(N)cc2)nn1 [Sulfamethoxypyridazine],25400 ± 14000

row,SMILES,imaged cell count per well
1,O=C(O[C@H]1CN2CCC1CC2)N1CCc2ccccc2[C@@H]1c1ccccc1 [Solifenacin succinate],21600 ± 7400
2,COc1nc2ccc(Br)cc2cc1[C@@H](c1ccccc1)[C@@](O)(CCN(C)C)c1cccc2ccccc12 [Bedaquiline fumarate],33000 ± 9700
3,Cc1ccc(O)c([C@H](CCN(C(C)C)C(C)C)c2ccccc2)c1 [Tolterodine tartrate],22700 ± 5300
4,CN(C)CCc1c[nH]c2ccc(Cn3cncn3)cc12 [Rizatriptan Benzoate],17000 ± 7000
5,Cc1cc(C)nc(NS(=O)(=O)c2ccc(N)cc2)n1 [Sulfamethazine Sodium Salt],24400 ± 1300
6,CN(CCN1CCC(OC(=O)Nc2ccccc2-c2ccccc2)CC1)C(=O)c1ccc(CN2CCC(C(N)=O)CC2)cc1 [Revefenacin],29300 ± 2700
7,COc1cc(N)c(Cl)cc1C(=O)NC1CCN(CCCOc2ccc(F)cc2)CC1OC (stereo not drawn) [Cisapride hydrate],20900 ± 5600
8,Cc1ccccc1C(OCCN(C)C)c1ccccc1 (stereo not drawn) [Orphenadrine Citrate],25900 ± 2800
9,CCCNC(C)C(=O)Nc1ccccc1C (stereo not drawn) [Prilocaine hydrochloride],22300 ± 6100
10,Cc1cnc(NC(=O)C2=C(O)c3ccccc3S(=O)(=O)N2C)s1 [Meloxicam],22800 ± 3200
11,CC(C)N1CCN(c2ccc(OCC3COC(Cn4cncn4)(c4ccc(Cl)cc4Cl)O3)cc2)CC1 (stereo not drawn) [Terconazole],29900 ± 2900
12,CCCN[C@H]1CCc2nc(N)sc2C1 [Pramipexole 2HCl Monohydrate],21500 ± 4800
13,CCCCCc1ccc(C)cc1O [Amylmetacresol],22500 ± 4400
14,Clc1ccc(C(Cn2ccnc2)OCc2csc3c(Cl)cccc23)c(Cl)c1 (stereo not drawn) [Sertaconazole nitrate],1650 ± 680
15,CCC(=O)NS(=O)(=O)c1ccc(-c2c(-c3ccccc3)noc2C)cc1 [Parecoxib Sodium],19000 ± 9300
16,COc1ccnc(C[S+]([O-])c2nc3cc(OC(F)F)ccc3[nH]2)c1OC (stereo not drawn) [Pantoprazole],20400 ± 1200
17,C[C@@H]1CN(c2c(F)c(N)c3c(=O)c(C(=O)O)cn(C4CC4)c3c2F)C[C@H](C)N1 [Sparfloxacin],27400 ± 2600
18,C[C@H]1c2cccc(O)c2C(=O)C2=C(O)[C@]3(O)C(=O)C(C(N)=O)=C(O)[C@@H](N(C)C)[C@@H]3[C@@H](O)[C@@H]21 [Doxycycline monohydrate],26600 ± 3100
19,C[C@]12CC[C@@H]3c4ccc(O)cc4CC[C@H]3[C@@H]1CC[C@@H]2O [Estradiol],19700 ± 1700

# In a second layout: results already given.
row | SMILES | imaged cell count per well
17 | C[C@@H]1CN(c2c(F)c(N)c3c(=O)c(C(=O)O)cn(C4CC4)c3c2F)C[C@H](C)N1 [Sparfloxacin] | 27400 ± 2600
19 | C[C@]12CC[C@@H]3c4ccc(O)cc4CC[C@H]3[C@@H]1CC[C@@H]2O [Estradiol] | 19700 ± 1700
